In patent publication US6025370A, “Quinolonecarboxylic acid derivatives or salts thereof” (Toyama Chemical Co., Ltd., priority 1996, dated 2000):
In brackets after ≈: the same amount, converted by molar mass.

Tested on: S. aureus F-597
Assay: Antibacterial activity (MIC), S. aureus F-597 (methicillin-resistant)
Assay type: cell-based
Conditions: Staphylococcus aureus, F597, 20 h
Method: According to the standard method of Japan Society of Chemotherapy [CHEMOTHERAPY, vol. 29, No. 1, pages 76-79 (1981)], a loopful of a cell suspension obtained by culturing in Mueller Hinton broth (mfd. by Difco) at 37° C. for 20 hours and adjusted to a concentration of 10^6 cells/plate (10^8 cells/ml) was inoculated into a Mueller Hinton agar medium (mfd. by Difco) containing the test compound, followed by incubation at 37° C. for 20 hours. […] In Table 1, *1 to *4 denote the following strains:
3: methicillin-resistant S. aureus

O=C(O)c1cn(C2CC2)c2cc(N3CCNCC3)c(F)cc2c1=O [j, 1-Cyclopropyl-6-fluoro-7-(1-piperazinyl)-1,4-dihydro-4-oxoquinoline-3-carboxylic acid, reference compound]
MIC: 3.13 µg/mL (≈ 9.45 µM)
